{"source": "patent US9977024B2", "about": "“Targeted covalent probes and inhibitors of proteins containing redox-sensitive cysteines” (THE SCRIPPS RESEARCH INSTITUTE, priority 2012, dated 2018)", "key": {"oxidized PTP1B [1]": {"molecular_target": "T1, oxidized PTP1B (Homo sapiens, UniProt P18031)", "T1 sequence (P18031 1-435)": "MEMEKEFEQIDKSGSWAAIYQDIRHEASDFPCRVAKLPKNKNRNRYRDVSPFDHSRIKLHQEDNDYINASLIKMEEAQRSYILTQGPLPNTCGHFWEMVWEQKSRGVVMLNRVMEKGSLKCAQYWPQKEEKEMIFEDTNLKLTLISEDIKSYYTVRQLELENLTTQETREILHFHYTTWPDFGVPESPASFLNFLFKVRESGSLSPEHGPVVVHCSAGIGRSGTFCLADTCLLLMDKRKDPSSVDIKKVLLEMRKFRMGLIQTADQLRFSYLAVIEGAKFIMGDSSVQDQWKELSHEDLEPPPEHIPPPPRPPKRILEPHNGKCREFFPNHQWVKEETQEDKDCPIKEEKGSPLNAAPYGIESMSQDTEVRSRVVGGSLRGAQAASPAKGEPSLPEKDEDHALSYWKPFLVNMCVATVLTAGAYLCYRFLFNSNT", "assay": "In vitro probe labeling of oxidized recombinant protein, click chemistry and Western blot", "assay_type": "binding", "details": "FIG. 25"}, "oxidized PTP1B [2]": {"molecular_target": "T1, oxidized PTP1B", "assay": "Detection of oxidized PTP1B in pJ3H-PTP1B transfected COS1 cells", "assay_type": "cell-based", "details": "insulin stimulation"}}, "note": "For at least one compound, name, drawing or mass did not settle the structure."}
{"smiles": "C#CCCCNC(=O)c1ccc(-c2ccc(NC(=O)C3CC(=O)CC(=O)C3)cc2)cc1", "note": "[Compound 3]", "values": [{"measurement": "covalent modification of oxidized PTP", "setting": "oxidized PTP1B [1]", "value": "robust dose-dependent covalent modification"}, {"measurement": "detection of oxidized PTP1B in cells", "setting": "oxidized PTP1B [2]", "value": "Detection of oxidized PTP1B in the cells was demonstrated"}]}
